Measured values reported in PubChem BioAssay AID328 (DTP/NCI, 2004).
The list does not hold the whole screen: it gathers tests that were run many times, whatever their T/C, doses with no T/C, and many T/C values between a quarter and a half above the control. Further doses and runs are listed elsewhere. T/C gives the treated animals as a percentage of the vehicle group. Some entries give survivors of the animals treated and no T/C: the source files T/C as zero there, which appears to mark a toxic dose or a test without result, not a measured value. Some doses without a T/C left all or most animals alive at the check, yet need not have been tolerated: survival well below the control is almost never listed, so the zero probably covers shortened survival too. Survivors were counted at the toxicity check, usually on the fifth day, unless a day is given; later deaths do not show. Schedule codes are those of the source, taken here to give the interval after Q, in days (D) or hours (H), and the number of doses after X. For survival time, the PubChem record calls one and a half times the control and up active, and a quarter to a half above the control has no call in these data; cut-offs in other NCI protocols can differ. Some entries were tested several times; the values are given in rising order.

Test system: BDF1 mice, P388 leukemia ip, median survival T/C
Test: NCI In Vivo Anticancer Drug Screen. Data for tumor model P388 Leukemia (intraperitoneal) in B6D2F1 (BDF1) mice
Details: T/C endpoint: median survival time, higher T/C = longer survival
Procedure, shortened: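 Antitumour effect was judged in vivo: survival in drug-treated mice, normalised to that of vehicle-dosed controls, gives the reported T/C.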

[1] = dose: 100.0 mg/kg/injection, schedule: Q04DX003 (ip), vehicle: saline
[2] = dose: 25.0 mg/kg/injection, schedule: Q01DX009 (ip), vehicle: saline
[3] = dose: 50.0 mg/kg/injection, schedule: Q01DX009 (ip), vehicle: saline
[4] = dose: 100.0 mg/kg/injection, schedule: Q01DX009 (ip), vehicle: saline
[5] = dose: 400.0 mg/kg/injection, schedule: Q01DX009 (ip), vehicle: saline with Tween-80
[6] = dose: 200.0 mg/kg/injection, schedule: Q01DX001 (ip), vehicle: saline with Tween-80
[7] = dose: 400.0 mg/kg/injection, schedule: Q01DX009 (ip), vehicle: saline
[8] = dose: 400.0 mg/kg/injection, schedule: Q04DX003 (ip), vehicle: saline
[9] = dose: 200.0 mg/kg/injection, schedule: Q04DX003 (ip), vehicle: saline
[10] = dose: 150.0 mg/kg/injection, schedule: Q01DX009 (ip), vehicle: saline

Cc1cc(O)c2c(c1)C(c1ccc3cc4c(c(O)c3c1O)C(=O)CC(C)(O)C4)c1cccc(O)c1C2=O (stereo not drawn)
survivor count (dose: 1.56 mg/kg/injection, schedule: Q01DX009 (ip), vehicle: olive oil, sesame oil, peanut oil): 6 of 6 | survivor count (dose: 3.12 mg/kg/injection, schedule: Q01DX009 (ip), vehicle: olive oil, sesame oil, peanut oil): 6 of 6 | survivor count (dose: 6.25 mg/kg/injection, schedule: Q01DX009 (ip), vehicle: olive oil, sesame oil, peanut oil): 6 of 6 | survivor count (dose: 12.5 mg/kg/injection, schedule: Q01DX009 (ip), vehicle: olive oil, sesame oil, peanut oil): 6 of 6 | survivor count (dose: 25.0 mg/kg/injection, schedule: Q01DX009 (ip), vehicle: olive oil, sesame oil, peanut oil): 1 of 6 | survivor count (dose: 50.0 mg/kg/injection, schedule: Q01DX009 (ip), vehicle: olive oil, sesame oil, peanut oil): 2 of 6

CN(Cc1ccc2nc(N)nc(N)c2c1)c1ccc(C(=O)NC(CCC(=O)O)C(=O)O)cc1 (stereo not drawn)
survivor count (dose: 0.22 mg/kg/injection, schedule: Q01DX009 (ip), vehicle: saline): 6 of 6 | survivor count (dose: 0.62 mg/kg/injection, schedule: Q01DX009 (ip), vehicle: saline): 4 of 6 | survivor count (dose: 1.25 mg/kg/injection, schedule: Q01DX009 (ip), vehicle: saline): 1 of 6 | T/C (dose: 1.65 mg/kg/injection, schedule: Q04DX003 (ip), vehicle: saline): 136 % of control | survivor count (dose: 2.5 mg/kg/injection, schedule: Q01DX009 (ip), vehicle: saline): 6 of 6 | survivor count (dose: 5.0 mg/kg/injection, schedule: Q01DX009 (ip), vehicle: saline): 3 of 6

COc1ccc(-c2csc(=[N+]3CCCCC3)s2)cc1
survivor count [1]: 0 of 6

CNNC(=O)NC
survivor count (dose: 16.5 mg/kg/injection, schedule: Q01DX009 (ip), vehicle: saline): 6 of 6 | T/C [2]: 138 % of control | survivor count [2]: 6 of 6 | survivor count (dose: 37.5 mg/kg/injection, schedule: Q01DX009 (ip), vehicle: saline): 5 of 6 | survivor count [3]: 5 of 6 | survivor count [4]: 0 of 6

ClC(Cl)(Cl)C(N1CCN(c2ccccc2)CC1)N1CCN(c2ccccc2)CC1
T/C [5]: 137 % of control

CSc1cc(C(N)=O)c2c(N)nc(SC)nc2n1
survivor count [6]: 6 of 6

N#CSCCSC#N
survivor count (dose: 100.0 mg/kg/injection, schedule: Q04DX002 (ip), vehicle: Klucel (hydroxypropylcellulose) (HPC)): 0 of 6 | survivor count (dose: 200.0 mg/kg/injection, schedule: Q04DX002 (ip), vehicle: Klucel (hydroxypropylcellulose) (HPC)): 0 of 6 | survivor count (dose: 400.0 mg/kg/injection, schedule: Q04DX002 (ip), vehicle: Klucel (hydroxypropylcellulose) (HPC)): 0 of 6

CC[C@H]1CN2CCc3cc(OC)c(OC)cc3[C@@H]2C[C@@H]1C[C@H]1NCCc2c1[nH]c1ccc(OC)cc21
T/C (dose: 4.0 mg/kg/injection, schedule: Q04DX003 (ip), vehicle: saline): 132 % of control | T/C (dose: 8.0 mg/kg/injection, schedule: Q04DX003 (ip), vehicle: saline): 145 % of control | T/C (dose: 10.8 mg/kg/injection, schedule: Q04DX003 (ip), vehicle: acid diluted with saline): 141 % of control | survivor count (dose: 50.0 mg/kg/injection, schedule: Q04DX003 (ip), vehicle: acid diluted with saline): 6 of 8

COC(=O)/C(C)=C/C1N=C1c1ccccc1 (stereo not drawn)
survivor count [6]: 1 of 6 | survivor count (dose: 400.0 mg/kg/injection, schedule: Q01DX001 (ip), vehicle: saline with Tween-80): 0 of 6

COc1ccc(CCC(C)=O)cc1
survivor count (dose: 200.0 mg/kg/injection, schedule: Q01DX009 (ip), vehicle: Klucel (hydroxypropylcellulose) (HPC)): 3 of 6

CC#CCOCC1CO1 (stereo not drawn)
T/C (dose: 44.0 mg/kg/injection, schedule: Q01DX009 (ip), vehicle: saline with Tween-80): 130 % of control | T/C [4]: 129 % of control | survivor count (dose: 150.0 mg/kg/injection, schedule: Q01DX009 (ip), vehicle: saline with Tween-80): 0 of 6 | survivor count (dose: 200.0 mg/kg/injection, schedule: Q01DX009 (ip), vehicle: saline): 3 of 6 | survivor count [7]: 0 of 6 | survivor count [8]: 6 of 6

CCC(C)P(=O)(N1CC1)N1CC1 (stereo not drawn)
survivor count (dose: 37.5 mg/kg/injection, schedule: Q04DX003 (ip), vehicle: saline): 2 of 6 | survivor count [1]: 0 of 6 | survivor count [9]: 0 of 6 | survivor count [8]: 0 of 6

O=Cc1c[nH]c2nccnc12
survivor count [3]: 5 of 6 | survivor count [7]: 4 of 6

c1ccc(Cn2ccnc2C2OCCO2)cc1
survivor count (dose: 25.0 mg/kg/injection, schedule: Q01DX009 (ip), vehicle: water): 6 of 6 | survivor count (dose: 200.0 mg/kg/injection, schedule: Q04DX003 (ip), vehicle: water): 2 of 6

C=CCOP(=O)(N1CC1C)N1CC1C (stereo not drawn)
T/C (dose: 33.0 mg/kg/injection, schedule: Q01DX009 (ip), vehicle: saline): 146 % of control | T/C (dose: 37.0 mg/kg/injection, schedule: Q01DX009 (ip), vehicle: saline): 130 % of control | T/C [3]: 142 and 146 % of control | T/C (dose: 67.0 mg/kg/injection, schedule: Q04DX003 (ip), vehicle: saline): 128 and 136 % of control | survivor count (dose: 112.0 mg/kg/injection, schedule: Q01DX009 (ip), vehicle: saline): 6 of 6 | survivor count [10]: 6 of 6 | survivor count [9]: 6 of 6 | survivor count [8]: 5 of 6

O.Oc1ccccc1C=NCCC[N-]CCCN=Cc1ccccc1O.[Co]
survivor count (dose: 100.0 mg/kg/injection, schedule: Q01DX009 (ip), vehicle: saline with Tween-80): 0 of 6 | survivor count (dose: 200.0 mg/kg/injection, schedule: Q01DX009 (ip), vehicle: saline with Tween-80): 3 of 6

CCOC(=O)C(Cc1ccccc1Cl)(Cc1ccccc1Cl)c1ccccc1
T/C [5]: 130 % of control

O=c1[nH]cnc2ccnn12
survivor count [10]: 4 of 6

O=S(=O)(O)c1ccc(-c2ccc(S(=O)(=O)O)cc2)cc1 (tested in a mixture with another compound)
survivor count (dose: 75.0 mg/kg/injection, schedule: Q04DX003 (ip), vehicle: saline): 6 of 6
